Primary screen of a compound library

By UniProt entry, the sequences of proteins in these tests, tags left out. Residues count along the entry.
UniProt P9WFT3, whole entry: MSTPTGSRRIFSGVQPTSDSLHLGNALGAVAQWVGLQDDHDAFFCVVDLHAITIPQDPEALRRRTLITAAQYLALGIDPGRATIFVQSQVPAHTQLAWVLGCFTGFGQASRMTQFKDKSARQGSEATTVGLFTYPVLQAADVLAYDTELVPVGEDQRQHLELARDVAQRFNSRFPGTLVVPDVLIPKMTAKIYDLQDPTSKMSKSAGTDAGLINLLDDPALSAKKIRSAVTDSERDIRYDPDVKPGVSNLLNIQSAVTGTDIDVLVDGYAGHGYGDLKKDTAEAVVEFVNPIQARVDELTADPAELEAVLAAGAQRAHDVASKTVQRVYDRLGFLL
UniProt I6X8D2, whole entry: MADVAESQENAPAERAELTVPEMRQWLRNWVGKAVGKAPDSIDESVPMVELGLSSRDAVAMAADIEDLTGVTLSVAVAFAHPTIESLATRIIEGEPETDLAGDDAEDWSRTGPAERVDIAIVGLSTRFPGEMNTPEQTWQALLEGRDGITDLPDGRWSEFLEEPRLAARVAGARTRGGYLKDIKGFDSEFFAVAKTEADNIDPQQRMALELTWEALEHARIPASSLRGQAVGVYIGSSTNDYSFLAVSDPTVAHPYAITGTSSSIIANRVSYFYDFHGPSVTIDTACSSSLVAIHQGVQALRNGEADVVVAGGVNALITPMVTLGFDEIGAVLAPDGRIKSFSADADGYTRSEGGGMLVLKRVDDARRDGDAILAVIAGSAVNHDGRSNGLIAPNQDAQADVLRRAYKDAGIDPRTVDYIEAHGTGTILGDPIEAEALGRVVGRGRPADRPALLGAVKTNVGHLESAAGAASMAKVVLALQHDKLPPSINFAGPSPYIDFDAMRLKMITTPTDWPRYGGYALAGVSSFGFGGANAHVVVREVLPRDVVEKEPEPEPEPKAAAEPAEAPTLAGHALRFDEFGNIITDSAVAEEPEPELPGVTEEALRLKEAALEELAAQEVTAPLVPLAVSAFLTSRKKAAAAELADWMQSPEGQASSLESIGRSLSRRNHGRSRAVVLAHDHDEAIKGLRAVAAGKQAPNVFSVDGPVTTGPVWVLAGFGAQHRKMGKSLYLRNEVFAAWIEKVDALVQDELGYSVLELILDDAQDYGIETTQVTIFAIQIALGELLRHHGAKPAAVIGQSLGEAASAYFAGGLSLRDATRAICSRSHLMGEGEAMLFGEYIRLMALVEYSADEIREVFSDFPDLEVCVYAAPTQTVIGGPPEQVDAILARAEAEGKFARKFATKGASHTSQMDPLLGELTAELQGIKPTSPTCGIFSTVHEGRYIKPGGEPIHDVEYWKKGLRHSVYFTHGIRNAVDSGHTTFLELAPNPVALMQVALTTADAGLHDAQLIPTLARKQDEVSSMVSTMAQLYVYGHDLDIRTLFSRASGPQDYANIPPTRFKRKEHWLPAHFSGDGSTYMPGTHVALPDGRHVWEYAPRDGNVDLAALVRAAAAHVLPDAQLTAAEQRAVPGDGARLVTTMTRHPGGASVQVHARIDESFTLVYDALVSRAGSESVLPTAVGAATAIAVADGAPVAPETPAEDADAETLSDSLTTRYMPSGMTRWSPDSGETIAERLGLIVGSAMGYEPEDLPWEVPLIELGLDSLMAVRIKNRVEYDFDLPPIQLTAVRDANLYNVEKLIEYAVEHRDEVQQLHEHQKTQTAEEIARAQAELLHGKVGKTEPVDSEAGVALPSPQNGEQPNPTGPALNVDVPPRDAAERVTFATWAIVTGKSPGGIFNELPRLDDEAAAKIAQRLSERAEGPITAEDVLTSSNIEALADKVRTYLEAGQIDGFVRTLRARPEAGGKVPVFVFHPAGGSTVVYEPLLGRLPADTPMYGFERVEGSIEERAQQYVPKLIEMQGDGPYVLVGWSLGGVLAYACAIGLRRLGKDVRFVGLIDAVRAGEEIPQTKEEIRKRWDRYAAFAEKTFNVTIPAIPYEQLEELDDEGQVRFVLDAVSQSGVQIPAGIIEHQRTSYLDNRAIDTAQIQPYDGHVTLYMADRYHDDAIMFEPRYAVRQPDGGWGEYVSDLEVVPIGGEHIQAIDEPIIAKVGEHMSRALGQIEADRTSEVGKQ
UniProt A4I591, 1-473: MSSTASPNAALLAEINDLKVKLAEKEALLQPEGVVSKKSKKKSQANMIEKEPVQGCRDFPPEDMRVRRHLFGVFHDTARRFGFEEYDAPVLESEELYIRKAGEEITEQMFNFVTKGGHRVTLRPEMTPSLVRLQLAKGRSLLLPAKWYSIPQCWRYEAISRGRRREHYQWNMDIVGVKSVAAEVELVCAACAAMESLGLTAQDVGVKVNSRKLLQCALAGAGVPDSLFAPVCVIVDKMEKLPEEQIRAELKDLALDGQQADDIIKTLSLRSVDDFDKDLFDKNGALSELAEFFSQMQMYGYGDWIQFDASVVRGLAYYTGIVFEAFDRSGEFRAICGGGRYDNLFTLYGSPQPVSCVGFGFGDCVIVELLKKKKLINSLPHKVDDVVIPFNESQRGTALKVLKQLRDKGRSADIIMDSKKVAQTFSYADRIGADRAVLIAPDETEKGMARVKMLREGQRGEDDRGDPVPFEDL
UniProt Q4DA54, 1-478: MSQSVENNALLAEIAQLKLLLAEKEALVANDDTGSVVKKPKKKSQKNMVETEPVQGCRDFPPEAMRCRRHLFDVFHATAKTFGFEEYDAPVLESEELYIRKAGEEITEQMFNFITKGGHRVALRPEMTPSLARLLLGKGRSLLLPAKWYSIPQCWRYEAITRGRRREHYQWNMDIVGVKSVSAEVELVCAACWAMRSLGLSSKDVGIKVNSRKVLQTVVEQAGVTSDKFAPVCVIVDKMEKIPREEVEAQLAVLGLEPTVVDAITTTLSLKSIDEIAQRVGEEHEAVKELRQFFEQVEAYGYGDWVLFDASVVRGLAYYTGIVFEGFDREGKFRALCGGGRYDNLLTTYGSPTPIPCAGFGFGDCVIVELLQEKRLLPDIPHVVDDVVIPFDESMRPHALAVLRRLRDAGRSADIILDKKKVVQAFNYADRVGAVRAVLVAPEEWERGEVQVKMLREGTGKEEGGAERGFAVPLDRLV

From ChEMBL document CHEMBL3988442, “University of Dundee, Small-Polar-MMV Screening Library” (2021).

MtTrpRS: 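Enzyme assay of tryptophanyl-tRNA synthetase; the read-out is not stated. Target: Tryptophan-tRNA ligase, Mycobacterium tuberculosis (UniProt P9WFT3). Compounds at 10 µM. Direction is not recorded; retested compounds ran higher, which suggests that high means inhibition. About 65,000 compounds were tested under these conditions; 0.098% (about 64) showed 50% or more at least once.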
Pks13 thioesterase: 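Enzyme assay of the thioesterase domain of polyketide synthase 13; the read-out is not stated. Target: Polyketide synthase Pks13, Mycobacterium tuberculosis (UniProt I6X8D2). Tested at 30 µM. Higher reads as stronger inhibition (inferred from which compounds were picked for retests). About 67,000 compounds were tested under these conditions; 0.46% (about 300) showed 50% or more at least once.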
LiHisRS: 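Histidine-tRNA ligase, Leishmania infantum (UniProt A4I591). Enzyme assay of histidyl-tRNA synthetase; the read-out is not stated. Tested at 30 µM. Higher reads as stronger inhibition (inferred: compounds with an IC50 in retests scored well above the rest). The assay is labelled LdHisRS but filed under L. infantum. Size under these conditions: about 69,000 compounds, about 410 of them at 50% or above in at least one test.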
TcHisRS: 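Enzyme assay of histidyl-tRNA synthetase; the read-out is not stated. Target: Histidine-tRNA ligase, Trypanosoma cruzi CL Brener (UniProt Q4DA54). Concentration: 30 µM. Direction is inferred from retests: higher values go with stronger inhibition. Size under these conditions: about 69,000 compounds, about 31 of them at 50% or above in at least one test.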

Values are the deposited “Percent Effect”, in %. The controls that fix the scale are not given in the record; negative values are as filed. This is an unselected part of the compounds tested.

{"compound": "Cc1nnsc1C(=O)N1CC[C@H](c2ccccc2)[C@@H]2[C@H]1CCCCN2C", "Pks13 thioesterase": 56.92, "LiHisRS": 7.292, "TcHisRS": 7.447}
{"compound": "O=C(CN1CCOC(Cn2cccn2)C1)NC(C1CC1)C1CC1", "stereo": "stereo unspecified", "MtTrpRS": 3.871, "Pks13 thioesterase": -6.916, "LiHisRS": 4.255, "TcHisRS": 4.046}
{"compound": "CSc1ncc(C(=O)N2C[C@H]3CC[C@@H]2CN(Cc2ccccc2)C3)cn1", "MtTrpRS": 1.924, "Pks13 thioesterase": -17.14, "LiHisRS": 17.31, "TcHisRS": 4.959}
{"compound": "COCCN1CCN(C(=O)C[C@@H]2C[C@@H](C(C)C)[C@H](CC#N)C=C2C)CC1", "MtTrpRS": -1.28, "Pks13 thioesterase": -3.891, "LiHisRS": 27.78, "TcHisRS": 0.9901}
{"compound": "CC(C)(CO)Nc1cc(-c2ccncc2)ncn1", "Pks13 thioesterase": 5.496, "LiHisRS": 17.14, "TcHisRS": 4.52}
{"compound": "O=C(NCc1cccnc1)[C@@H]1CC[C@@H]2[C@@H](CCN2c2ncc(F)cn2)O1", "MtTrpRS": -4.018, "Pks13 thioesterase": 14.64, "LiHisRS": 7, "TcHisRS": 3.061}
{"compound": "Cc1nc2c(c(NC3CC3)n1)CCN(C(=O)C(C)(C)O)CC2", "MtTrpRS": 0.4359, "Pks13 thioesterase": -18.14, "LiHisRS": 12.03, "TcHisRS": 9.392}
{"compound": "CC(=O)NCC1CCN(C(=O)NCCc2ccc(Cl)s2)CC1", "MtTrpRS": -5.623, "Pks13 thioesterase": -18.77, "LiHisRS": 11.3, "TcHisRS": 2.254}
{"compound": "O=S(=O)(c1ccccc1)N1CCN(Cc2ccc(F)cc2Br)CC1", "MtTrpRS": -0.698, "Pks13 thioesterase": 29.81, "LiHisRS": 14.89, "TcHisRS": 14.45}
{"compound": "FC1(F)CCN(Cc2ccccn2)CC12CCN(c1cnccn1)C2", "stereo": "stereo unspecified", "Pks13 thioesterase": 7.2, "LiHisRS": 11.82, "TcHisRS": -14.81}
{"compound": "Cc1ncsc1CCN(C)C(=O)CCc1nc2cccnc2n1C", "MtTrpRS": 0.8043, "Pks13 thioesterase": -12.92, "LiHisRS": -76, "TcHisRS": 0.5291}
{"compound": "CC(C(=O)Nc1ccc(Cl)cn1)N1CCc2nn(C)c(=O)cc2C1", "stereo": "stereo unspecified", "MtTrpRS": 2.943, "Pks13 thioesterase": -11.15, "LiHisRS": 101.8, "TcHisRS": 7.895}
{"compound": "N#CCCN(CCC#N)C(=O)c1ccc(OCC2CC2)cc1", "MtTrpRS": 2.812, "Pks13 thioesterase": -30.05, "LiHisRS": 25, "TcHisRS": 0}
{"compound": "OC1(CNc2cccc(F)c2)CCNCC1", "MtTrpRS": -4.575, "Pks13 thioesterase": -10.17, "LiHisRS": 16.67, "TcHisRS": 11.46}
{"compound": "Nc1nc2c(c(NC(Cn3cccn3)c3ccccc3)n1)CCNCC2", "stereo": "stereo unspecified", "MtTrpRS": 2.583, "LiHisRS": 6.024, "TcHisRS": 3.659}
{"compound": "CC(C)c1ncc(CN2C[C@@H](CN3CCCN(C)CC3)[C@@H](CO)C2)cn1", "MtTrpRS": 1.816, "Pks13 thioesterase": -14.47, "LiHisRS": 12.12, "TcHisRS": 5.435}
{"compound": "CCc1nc(CN2CCCN(Cc3noc(C4CC4)n3)CC2)cs1", "MtTrpRS": 0.722, "Pks13 thioesterase": -9.025, "LiHisRS": 32.86, "TcHisRS": 29.79}
{"compound": "COc1ccc(S(=O)(=O)Nc2cnc(N(C)C)nc2)cc1", "MtTrpRS": 3.099, "Pks13 thioesterase": 2.356, "LiHisRS": 17.39, "TcHisRS": 8}
{"compound": "CN1CCC(n2nc(Cc3cccs3)nc2-c2ccncc2)CC1", "MtTrpRS": -0.8215, "Pks13 thioesterase": 5.86, "LiHisRS": 18.25, "TcHisRS": 4.706}
{"compound": "Cc1cc(C(=O)N2CCN(Cc3ccsc3)CC2)c(C)n1C1CC1", "MtTrpRS": -3.754, "Pks13 thioesterase": 4.882, "LiHisRS": 12.07, "TcHisRS": 17.51}
{"compound": "Cc1noc(C)c1-c1cccc(C2CCNCC2)n1", "MtTrpRS": 18.98, "Pks13 thioesterase": -3.768, "LiHisRS": 0.6897, "TcHisRS": 3.802}
{"compound": "CCOC(=O)c1sc(NC(=O)c2cc(=O)c(OC)c[nH]2)nc1C", "MtTrpRS": -0.07003, "Pks13 thioesterase": -1.502, "LiHisRS": 15.79, "TcHisRS": 1.754}
{"compound": "COCc1nn(C(C)C)c2c1CCN(Cc1ccc(C)s1)C2", "MtTrpRS": 0.9046, "Pks13 thioesterase": -16.85, "LiHisRS": 5.714, "TcHisRS": 1.653}
{"compound": "CC(O)CN(CC(=O)NC1CCCCC1)c1ccccc1", "stereo": "stereo unspecified", "MtTrpRS": 4.801, "Pks13 thioesterase": -18.4, "LiHisRS": 6.612, "TcHisRS": -2.521}
{"compound": "NC(=O)c1cnn2c(C3CCCN(C4CCOCC4)C3)ccnc12", "stereo": "stereo unspecified", "MtTrpRS": -4.036, "Pks13 thioesterase": 3.408, "LiHisRS": 12.95, "TcHisRS": -1.916}
{"compound": "CCN(Cc1cc(Cl)c(O)c(OC)c1)Cc1nc(COC)no1", "MtTrpRS": 0.9449, "Pks13 thioesterase": -4.527, "LiHisRS": 16.39, "TcHisRS": -29.29}
{"compound": "O=C(CCc1ccccc1)N1CCCCC1Cn1cccn1", "stereo": "stereo unspecified", "MtTrpRS": 18.31, "Pks13 thioesterase": -24.26, "LiHisRS": 0.885, "TcHisRS": 0.8746}
{"compound": "CN(Cc1nnc(-c2ccco2)o1)CC1CCCN1c1cccnn1", "stereo": "stereo unspecified", "MtTrpRS": -6.177, "Pks13 thioesterase": 4.131, "LiHisRS": 8, "TcHisRS": 1.887}